Here are results for three substances from article PMC4982761.

Sequences of proteins named here, by UniProt entry; tags and fusion partners are left off.
UniProt P42582: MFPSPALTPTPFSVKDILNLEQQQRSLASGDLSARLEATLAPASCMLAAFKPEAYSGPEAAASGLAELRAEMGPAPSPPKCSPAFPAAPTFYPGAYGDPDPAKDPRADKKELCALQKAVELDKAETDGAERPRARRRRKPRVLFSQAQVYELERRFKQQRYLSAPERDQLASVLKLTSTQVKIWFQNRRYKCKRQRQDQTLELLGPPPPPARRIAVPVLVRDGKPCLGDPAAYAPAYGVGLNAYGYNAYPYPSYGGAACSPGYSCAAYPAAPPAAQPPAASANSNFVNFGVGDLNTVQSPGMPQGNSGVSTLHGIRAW
UniProt A2AKX3: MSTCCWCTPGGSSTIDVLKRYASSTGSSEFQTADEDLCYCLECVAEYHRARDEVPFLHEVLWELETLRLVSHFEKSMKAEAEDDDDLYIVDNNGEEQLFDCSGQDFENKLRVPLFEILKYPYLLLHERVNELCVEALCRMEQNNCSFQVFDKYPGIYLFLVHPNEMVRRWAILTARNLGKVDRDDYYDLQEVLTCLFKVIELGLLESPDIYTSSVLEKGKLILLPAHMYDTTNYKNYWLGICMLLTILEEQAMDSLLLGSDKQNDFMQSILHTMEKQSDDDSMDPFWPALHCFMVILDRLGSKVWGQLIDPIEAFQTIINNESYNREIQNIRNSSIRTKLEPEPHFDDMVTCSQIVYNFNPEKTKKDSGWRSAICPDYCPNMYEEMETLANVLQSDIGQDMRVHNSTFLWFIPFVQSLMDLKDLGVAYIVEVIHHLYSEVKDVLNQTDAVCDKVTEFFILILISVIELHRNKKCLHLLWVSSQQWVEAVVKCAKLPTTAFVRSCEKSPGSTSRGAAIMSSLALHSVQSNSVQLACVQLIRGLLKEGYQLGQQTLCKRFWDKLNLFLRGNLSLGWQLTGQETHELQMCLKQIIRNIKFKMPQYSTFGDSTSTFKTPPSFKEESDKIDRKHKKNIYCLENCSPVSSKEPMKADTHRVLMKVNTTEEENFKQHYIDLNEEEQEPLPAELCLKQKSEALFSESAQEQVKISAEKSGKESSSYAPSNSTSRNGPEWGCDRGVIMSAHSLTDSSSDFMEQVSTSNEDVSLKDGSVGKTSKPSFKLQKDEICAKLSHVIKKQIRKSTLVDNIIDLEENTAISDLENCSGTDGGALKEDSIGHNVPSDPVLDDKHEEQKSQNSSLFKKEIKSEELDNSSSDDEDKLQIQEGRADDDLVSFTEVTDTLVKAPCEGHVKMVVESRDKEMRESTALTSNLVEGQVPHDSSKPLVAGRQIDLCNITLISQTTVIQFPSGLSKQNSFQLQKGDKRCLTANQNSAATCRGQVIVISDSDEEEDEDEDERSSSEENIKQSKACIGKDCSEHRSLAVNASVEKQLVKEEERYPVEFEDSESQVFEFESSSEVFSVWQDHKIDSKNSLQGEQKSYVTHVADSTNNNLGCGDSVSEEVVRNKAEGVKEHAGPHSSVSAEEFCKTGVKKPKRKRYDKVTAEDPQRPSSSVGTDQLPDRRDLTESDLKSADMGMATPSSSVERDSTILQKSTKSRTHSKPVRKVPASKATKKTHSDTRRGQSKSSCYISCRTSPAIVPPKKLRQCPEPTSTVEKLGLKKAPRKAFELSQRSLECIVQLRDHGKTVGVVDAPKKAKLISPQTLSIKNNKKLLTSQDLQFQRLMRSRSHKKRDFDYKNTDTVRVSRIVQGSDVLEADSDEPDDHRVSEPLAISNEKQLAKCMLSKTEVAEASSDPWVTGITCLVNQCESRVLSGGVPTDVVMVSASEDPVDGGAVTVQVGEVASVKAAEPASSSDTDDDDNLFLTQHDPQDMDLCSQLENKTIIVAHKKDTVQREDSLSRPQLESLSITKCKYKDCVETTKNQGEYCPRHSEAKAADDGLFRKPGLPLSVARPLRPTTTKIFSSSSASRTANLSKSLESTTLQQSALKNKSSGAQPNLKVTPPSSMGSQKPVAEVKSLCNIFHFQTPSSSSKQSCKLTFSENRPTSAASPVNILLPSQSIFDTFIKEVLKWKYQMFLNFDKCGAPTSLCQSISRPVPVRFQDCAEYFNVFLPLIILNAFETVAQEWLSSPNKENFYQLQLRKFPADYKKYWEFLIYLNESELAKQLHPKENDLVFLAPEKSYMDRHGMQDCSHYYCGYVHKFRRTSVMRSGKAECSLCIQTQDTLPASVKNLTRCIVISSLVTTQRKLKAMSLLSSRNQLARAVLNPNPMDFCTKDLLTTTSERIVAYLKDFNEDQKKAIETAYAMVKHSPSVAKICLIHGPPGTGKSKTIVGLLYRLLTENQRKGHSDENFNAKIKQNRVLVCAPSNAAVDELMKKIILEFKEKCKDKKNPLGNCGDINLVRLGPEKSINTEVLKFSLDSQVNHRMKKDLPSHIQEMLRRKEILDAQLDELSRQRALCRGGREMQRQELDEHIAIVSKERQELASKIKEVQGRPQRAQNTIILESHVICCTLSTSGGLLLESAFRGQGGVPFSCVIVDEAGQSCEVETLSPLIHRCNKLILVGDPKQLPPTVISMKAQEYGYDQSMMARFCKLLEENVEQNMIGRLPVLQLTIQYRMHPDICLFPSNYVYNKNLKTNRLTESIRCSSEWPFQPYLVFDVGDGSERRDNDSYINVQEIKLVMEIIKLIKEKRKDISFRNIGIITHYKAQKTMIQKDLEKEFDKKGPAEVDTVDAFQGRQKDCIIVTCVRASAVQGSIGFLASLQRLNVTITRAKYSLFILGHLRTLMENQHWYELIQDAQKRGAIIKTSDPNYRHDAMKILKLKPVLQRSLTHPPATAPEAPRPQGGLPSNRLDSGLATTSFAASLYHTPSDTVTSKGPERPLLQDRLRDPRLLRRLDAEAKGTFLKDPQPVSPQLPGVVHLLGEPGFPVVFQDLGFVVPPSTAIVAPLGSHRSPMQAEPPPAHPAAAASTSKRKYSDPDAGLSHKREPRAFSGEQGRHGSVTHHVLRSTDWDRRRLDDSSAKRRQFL
UniProt O70133: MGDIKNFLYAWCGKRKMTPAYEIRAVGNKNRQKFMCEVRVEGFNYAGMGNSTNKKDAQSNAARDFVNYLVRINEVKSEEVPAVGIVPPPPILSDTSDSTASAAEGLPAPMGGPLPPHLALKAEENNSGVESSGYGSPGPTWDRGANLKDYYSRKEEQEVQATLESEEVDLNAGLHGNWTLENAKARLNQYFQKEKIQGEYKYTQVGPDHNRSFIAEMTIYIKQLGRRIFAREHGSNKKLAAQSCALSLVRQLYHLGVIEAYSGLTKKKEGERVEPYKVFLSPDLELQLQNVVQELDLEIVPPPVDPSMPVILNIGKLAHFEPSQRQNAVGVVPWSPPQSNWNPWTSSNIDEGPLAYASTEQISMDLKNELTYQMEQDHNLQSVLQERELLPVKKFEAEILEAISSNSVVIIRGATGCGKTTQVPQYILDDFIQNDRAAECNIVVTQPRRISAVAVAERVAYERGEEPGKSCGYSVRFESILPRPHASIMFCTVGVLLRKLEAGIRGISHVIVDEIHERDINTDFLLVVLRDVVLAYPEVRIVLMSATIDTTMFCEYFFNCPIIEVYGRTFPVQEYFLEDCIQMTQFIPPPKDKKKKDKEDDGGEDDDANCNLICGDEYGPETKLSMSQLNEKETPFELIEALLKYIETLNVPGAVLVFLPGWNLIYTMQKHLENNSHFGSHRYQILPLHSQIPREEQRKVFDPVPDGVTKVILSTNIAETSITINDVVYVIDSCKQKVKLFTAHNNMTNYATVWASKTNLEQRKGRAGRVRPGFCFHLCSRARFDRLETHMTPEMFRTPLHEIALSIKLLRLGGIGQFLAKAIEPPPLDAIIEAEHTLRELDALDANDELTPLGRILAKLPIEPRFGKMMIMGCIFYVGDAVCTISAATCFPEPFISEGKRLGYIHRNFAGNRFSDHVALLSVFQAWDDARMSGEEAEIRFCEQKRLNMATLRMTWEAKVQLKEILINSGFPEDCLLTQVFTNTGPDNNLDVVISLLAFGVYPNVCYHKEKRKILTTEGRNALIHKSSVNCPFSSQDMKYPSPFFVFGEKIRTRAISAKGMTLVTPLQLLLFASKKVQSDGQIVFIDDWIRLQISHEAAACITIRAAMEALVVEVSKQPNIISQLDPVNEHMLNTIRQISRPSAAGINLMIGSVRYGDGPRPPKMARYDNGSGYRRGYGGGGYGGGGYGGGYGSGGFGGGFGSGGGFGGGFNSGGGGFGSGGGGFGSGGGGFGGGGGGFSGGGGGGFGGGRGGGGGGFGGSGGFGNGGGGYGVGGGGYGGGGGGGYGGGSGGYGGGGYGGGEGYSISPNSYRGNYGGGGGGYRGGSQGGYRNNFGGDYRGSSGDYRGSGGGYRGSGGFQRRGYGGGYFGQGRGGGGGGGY

One test has as its target T1, Flag-Xrn2 (UniProt Q9DBR1).
T1 sequence: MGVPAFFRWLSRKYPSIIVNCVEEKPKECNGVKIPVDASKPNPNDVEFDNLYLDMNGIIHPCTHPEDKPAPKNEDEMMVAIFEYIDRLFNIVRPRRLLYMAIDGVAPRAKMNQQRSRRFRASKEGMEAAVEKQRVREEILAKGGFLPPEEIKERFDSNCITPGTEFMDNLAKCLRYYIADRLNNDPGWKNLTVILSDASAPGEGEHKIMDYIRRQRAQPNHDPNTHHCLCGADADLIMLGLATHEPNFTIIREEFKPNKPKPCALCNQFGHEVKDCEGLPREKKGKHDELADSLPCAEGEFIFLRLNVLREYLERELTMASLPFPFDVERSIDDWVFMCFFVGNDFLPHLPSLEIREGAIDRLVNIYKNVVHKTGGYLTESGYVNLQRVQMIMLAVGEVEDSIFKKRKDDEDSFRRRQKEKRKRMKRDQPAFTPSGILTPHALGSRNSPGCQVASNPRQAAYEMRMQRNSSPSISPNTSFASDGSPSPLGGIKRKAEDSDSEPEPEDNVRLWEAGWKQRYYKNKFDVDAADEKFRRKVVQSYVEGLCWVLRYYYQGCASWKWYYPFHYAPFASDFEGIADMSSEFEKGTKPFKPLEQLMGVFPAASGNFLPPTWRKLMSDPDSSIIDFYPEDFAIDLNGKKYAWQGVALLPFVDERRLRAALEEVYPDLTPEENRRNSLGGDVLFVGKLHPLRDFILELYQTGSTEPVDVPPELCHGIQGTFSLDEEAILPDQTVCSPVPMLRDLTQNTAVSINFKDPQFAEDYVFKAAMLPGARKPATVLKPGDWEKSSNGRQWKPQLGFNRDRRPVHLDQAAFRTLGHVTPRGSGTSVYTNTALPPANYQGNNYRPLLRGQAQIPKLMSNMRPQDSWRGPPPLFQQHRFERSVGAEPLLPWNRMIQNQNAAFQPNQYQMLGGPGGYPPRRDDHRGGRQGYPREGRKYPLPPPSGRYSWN
Put plainly: co-IP; HA-Nkx2-5, Flag-Xrn2 and their deletion mutants cotransfected into C3H10T1/2 cells; immunoprecipitated from nuclear extracts with M2 (Flag) or HA antibody; Western blotting. In general terms: A western blot detects proteins with antibodies after separation by electrophoresis.

Test [1] concerns the target Nkx2-5 (mouse (endogenous in E12.5 hearts)) (UniProt P42582). Put plainly: co-IP; endogenous proteins immunoprecipitated with the indicated antibodies from nuclear extracts of E12.5 mouse hearts, Western blotting; in Figure 3D extracts exposed to 20 µg/ml EtBr or 50 µg/ml RNaseA.

Results are given in words; binding and its absence hold for the method and conditions named. In cells and extracts the contact can be indirect. Some entries that bind do so weakly or less than the wild type. For part of these data: Where a sequence is shown, tags or fusion partners need not be part of it.

Take HA-Nkx2-5 (from UniProt P42582 1-318): the binding result with Flag-Xrn2 is “binds”.
“Senataxin (from UniProt A2AKX3 1-2646) (enzyme)”: the binding entry in test [1] was “no binding”.
Same read-out and setting: then “Dhx9 (from UniProt O70133 1-1380) (enzyme)”, with “no binding”.
